The exact form of at least one protein or probe is not confirmed. For part of these data: Negatives hold for the conditions tested.
Legend:
[1] = tested on: GST-GmFLC-like (Glycine max (soybean) cv. Huachun 5); test: EMSA; conditions: 3 ug protein, 25 pmol probe, LightShift Chemiluminescent EMSA kit (Pierce), 25 pmol biotin probe, pH and temperature not stated, recombinant protein, protein details: GST
[2] = tested on: GST-GmFLC-like (Glycine max (soybean) cv. Huachun 5); test: competition with a labelled probe; conditions: EMSA, LightShift Chemiluminescent EMSA kit (Pierce), 3 ug protein, 25 pmol biotin probe, pH and temperature not stated, recombinant protein, protein details: GST

Sequence: CACTCAAGTGTTGCCAATTAATTGACAAAAAATGGT (double strand) [proGmFT2a probe (-663 to -628), biotin-labeled]
- binding result [1]: binds

Sequence: CACTCAAGTGTTGCCAATTAATTGACAAAAAATGGT (double strand) [proGmFT2a unlabeled competitor]
- binding result ([2]; 10- to 100-fold excess over biotin-labeled probe, binding slowly weakened): binds

Sequence: CACTCAAGTGTTGCAAATTAATTTACAAAAAATGGT (double strand) [mutated CArG unlabeled competitor (called GCC probe in text)]
- binding result ([2]; unlabeled mutant did not affect binding of biotin-labeled probe): no binding

Reference: publication PMC7072909
